Data published in article PMC4356511.
Numbering of substitutions follows the chain as printed. In names and notes the source's numbering stands. These are yes or no findings as the source states them, for the method shown. In cells and extracts the contact can be indirect. Some binding calls cover weakened binding; strength is not graded here. Tags and fused reporters may be left off the sequences shown.

Sequences of proteins named here, by UniProt entry; tags and fusion partners are left off.
UniProt P47806: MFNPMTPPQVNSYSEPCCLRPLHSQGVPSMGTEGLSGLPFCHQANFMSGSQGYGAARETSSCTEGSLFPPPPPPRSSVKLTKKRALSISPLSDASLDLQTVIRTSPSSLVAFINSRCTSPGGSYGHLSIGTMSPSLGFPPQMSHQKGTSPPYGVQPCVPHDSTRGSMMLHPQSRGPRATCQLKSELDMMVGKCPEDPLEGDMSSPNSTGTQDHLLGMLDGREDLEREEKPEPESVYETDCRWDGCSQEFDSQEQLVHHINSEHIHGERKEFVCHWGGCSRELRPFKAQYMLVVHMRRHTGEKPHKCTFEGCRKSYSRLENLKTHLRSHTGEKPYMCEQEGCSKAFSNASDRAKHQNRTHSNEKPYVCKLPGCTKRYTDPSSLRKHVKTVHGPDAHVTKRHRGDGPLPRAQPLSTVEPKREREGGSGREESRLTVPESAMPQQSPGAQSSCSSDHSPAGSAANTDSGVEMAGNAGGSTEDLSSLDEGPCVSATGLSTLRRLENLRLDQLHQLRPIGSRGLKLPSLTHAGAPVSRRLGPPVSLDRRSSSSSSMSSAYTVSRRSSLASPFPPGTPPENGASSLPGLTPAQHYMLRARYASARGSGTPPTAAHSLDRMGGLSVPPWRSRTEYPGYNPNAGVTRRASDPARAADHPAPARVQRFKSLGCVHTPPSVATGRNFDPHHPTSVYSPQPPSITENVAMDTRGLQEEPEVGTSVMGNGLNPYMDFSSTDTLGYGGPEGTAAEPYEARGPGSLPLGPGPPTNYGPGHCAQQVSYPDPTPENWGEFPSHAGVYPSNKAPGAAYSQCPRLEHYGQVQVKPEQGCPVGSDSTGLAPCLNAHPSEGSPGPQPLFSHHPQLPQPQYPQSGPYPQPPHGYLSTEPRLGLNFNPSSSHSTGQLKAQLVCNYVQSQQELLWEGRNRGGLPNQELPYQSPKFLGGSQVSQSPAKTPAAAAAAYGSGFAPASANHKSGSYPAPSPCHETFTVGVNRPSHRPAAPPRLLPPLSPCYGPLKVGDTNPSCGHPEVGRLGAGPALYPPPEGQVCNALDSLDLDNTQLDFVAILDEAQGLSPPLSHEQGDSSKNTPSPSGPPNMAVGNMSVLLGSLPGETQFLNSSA
UniProt Q0VGT2: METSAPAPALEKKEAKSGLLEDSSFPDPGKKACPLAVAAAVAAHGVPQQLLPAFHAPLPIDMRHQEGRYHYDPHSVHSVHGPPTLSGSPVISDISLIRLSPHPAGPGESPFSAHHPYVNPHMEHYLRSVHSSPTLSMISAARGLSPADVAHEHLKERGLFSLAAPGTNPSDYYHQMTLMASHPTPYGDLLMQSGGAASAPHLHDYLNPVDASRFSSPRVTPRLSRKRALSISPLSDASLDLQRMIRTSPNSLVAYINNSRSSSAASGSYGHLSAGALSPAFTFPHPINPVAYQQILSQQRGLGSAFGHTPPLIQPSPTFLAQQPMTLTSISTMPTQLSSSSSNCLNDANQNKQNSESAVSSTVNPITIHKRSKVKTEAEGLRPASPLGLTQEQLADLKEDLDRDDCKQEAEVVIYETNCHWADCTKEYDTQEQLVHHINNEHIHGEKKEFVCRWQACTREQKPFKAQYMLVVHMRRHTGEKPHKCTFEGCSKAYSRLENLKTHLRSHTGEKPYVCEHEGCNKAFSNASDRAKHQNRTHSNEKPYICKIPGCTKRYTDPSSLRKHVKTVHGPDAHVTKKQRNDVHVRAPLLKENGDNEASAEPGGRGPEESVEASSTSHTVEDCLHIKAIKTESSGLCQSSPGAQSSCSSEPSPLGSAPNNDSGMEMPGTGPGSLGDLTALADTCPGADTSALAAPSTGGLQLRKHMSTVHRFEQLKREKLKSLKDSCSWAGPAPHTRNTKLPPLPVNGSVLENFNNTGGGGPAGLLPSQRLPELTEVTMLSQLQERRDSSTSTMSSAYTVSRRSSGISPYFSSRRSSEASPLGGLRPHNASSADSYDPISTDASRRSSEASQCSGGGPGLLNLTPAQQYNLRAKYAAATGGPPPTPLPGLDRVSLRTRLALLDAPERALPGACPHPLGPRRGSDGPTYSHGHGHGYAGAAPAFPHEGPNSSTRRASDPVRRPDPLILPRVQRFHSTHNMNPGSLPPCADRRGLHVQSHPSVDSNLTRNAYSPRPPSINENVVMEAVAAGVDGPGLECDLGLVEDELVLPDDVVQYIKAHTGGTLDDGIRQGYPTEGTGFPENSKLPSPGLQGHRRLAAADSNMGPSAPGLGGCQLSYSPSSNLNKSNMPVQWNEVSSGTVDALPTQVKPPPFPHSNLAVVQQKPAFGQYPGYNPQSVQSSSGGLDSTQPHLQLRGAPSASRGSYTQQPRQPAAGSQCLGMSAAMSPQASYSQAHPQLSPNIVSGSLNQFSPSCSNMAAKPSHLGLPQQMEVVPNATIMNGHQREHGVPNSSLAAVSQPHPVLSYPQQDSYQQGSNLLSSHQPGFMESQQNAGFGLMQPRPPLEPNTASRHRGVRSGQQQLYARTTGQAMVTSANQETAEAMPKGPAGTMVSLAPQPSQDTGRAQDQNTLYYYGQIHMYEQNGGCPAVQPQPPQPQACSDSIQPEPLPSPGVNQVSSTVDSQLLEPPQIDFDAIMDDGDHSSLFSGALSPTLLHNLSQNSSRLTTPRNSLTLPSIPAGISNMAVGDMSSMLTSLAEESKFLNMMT
UniProt Q61602: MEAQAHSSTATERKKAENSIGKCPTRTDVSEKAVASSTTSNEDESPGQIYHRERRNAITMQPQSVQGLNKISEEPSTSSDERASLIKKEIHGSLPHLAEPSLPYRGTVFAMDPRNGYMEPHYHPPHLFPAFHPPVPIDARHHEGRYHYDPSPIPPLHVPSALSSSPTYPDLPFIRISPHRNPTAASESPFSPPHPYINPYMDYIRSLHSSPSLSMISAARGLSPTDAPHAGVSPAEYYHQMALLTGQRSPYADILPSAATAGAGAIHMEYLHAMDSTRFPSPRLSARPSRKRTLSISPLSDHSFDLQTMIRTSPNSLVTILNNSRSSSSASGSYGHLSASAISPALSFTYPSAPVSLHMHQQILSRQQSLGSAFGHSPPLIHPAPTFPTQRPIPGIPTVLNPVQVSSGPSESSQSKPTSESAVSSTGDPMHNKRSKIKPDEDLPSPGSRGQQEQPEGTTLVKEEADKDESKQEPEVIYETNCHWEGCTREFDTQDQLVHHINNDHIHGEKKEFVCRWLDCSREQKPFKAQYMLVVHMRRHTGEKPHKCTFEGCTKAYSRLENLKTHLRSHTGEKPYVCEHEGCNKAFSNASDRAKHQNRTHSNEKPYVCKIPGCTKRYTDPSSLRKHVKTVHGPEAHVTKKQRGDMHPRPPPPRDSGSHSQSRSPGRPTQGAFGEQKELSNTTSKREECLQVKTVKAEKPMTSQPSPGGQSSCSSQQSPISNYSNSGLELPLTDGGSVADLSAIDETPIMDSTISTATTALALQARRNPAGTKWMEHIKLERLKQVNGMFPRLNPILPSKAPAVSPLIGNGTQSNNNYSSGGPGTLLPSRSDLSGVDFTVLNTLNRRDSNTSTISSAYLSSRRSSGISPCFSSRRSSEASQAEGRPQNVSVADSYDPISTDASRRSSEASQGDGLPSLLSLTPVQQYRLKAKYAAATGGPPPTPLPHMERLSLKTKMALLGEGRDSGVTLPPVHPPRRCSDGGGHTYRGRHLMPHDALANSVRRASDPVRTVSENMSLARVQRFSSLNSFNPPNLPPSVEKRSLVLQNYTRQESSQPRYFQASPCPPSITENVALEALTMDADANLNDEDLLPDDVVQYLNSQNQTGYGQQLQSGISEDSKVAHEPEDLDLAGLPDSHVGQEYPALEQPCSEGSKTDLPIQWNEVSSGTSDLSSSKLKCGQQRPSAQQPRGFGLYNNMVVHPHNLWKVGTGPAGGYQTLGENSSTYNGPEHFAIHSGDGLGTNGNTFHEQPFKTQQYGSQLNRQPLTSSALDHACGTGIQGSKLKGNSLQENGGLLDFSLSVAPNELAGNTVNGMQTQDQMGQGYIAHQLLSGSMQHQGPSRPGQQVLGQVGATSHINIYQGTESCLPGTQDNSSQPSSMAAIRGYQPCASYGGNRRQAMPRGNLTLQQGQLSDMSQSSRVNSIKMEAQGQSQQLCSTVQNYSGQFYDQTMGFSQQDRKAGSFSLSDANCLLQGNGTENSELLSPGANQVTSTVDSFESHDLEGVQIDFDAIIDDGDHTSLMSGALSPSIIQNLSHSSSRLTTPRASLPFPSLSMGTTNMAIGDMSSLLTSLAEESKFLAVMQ

What was measured:
Assay in all cases: co-IP; 293T cells 24 h after transfection; lysis buffer 0.1 mM Tris-HCl pH 7.5, 0.3 M NaCl, 2% Nonidet P-40, 2 mM EDTA; cleared lysates with anti-HA or anti-FLAG M2 magnetic beads 2 h at 4°C; washed three times; western blotting
Flag–Gli1 = Flag–Gli1 (UniProt P47806)
Flag–Gli2 = Flag–Gli2 (UniProt Q0VGT2)
[1] = target: Flag–Gli3 (Gli3^FL) (mouse) (UniProt Q61602)

Measured: binding

B1: HA–Sufu^T396I (protein, UniProt Q9Z0P7 1-484)
chain: MAELRPSVAPGPAAPPASGPSAPPAFASLFPPGLHAIYGECRRLYPDQPNPLQVTAIVKYWLGGPDPLDYVSMYRNMGSPSANIPEHWHYISFGLSDLYGDNRVHEFTGTDGPSGFGFELTFRLKRETGESAPPTWPAELMQGLARYVFQSENTFCSGDHVSWHSPLDNSESRIQHMLLTEDPQMQPVRTPFGVVTFLQIVGVCTEELHSAQQWNGQGILELLRTVPIAGGPWLITDMRRGETIFEIDPHLQERVDKGIETDGSNLSGVSAKCAWDDLSRPPEDEEDSRSICLGTQPRRLSGKDTEQIRETLRRGLEINSKPVLPPINSQRQNGLTHDRAPSRKDSLGSDSSTAIIPHELIRTRQLESVHLKFNQESGALIPLCLRGRLLHGRHFIYKSITGDMAITFVSTGVEGAFATEEHPYAAHGPWLQILLTEEFVEKMLEDLEDLTSPEEFKLPKEYSWPEKKLKVSILPDVVFDSPLH
binds: Flag–Gli1 | Flag–Gli2 | [1]

B2: HA–Sufu (wild-type Sufu) (protein, UniProt Q9Z0P7 1-484)
chain: B1 chain with I396T
binds: Flag–Gli1 | Flag–Gli2 | [1]
